# From the supplement of paper PMC8728848
# This is one part of the list.
# Legend:
# Assay in all cases: glycan array binding signal (z-score within array); higher = stronger binding
# Details in all cases: glycan notation: IUPAC condensed, linker removed
# [1] = target: Gal(b1-4)GlcNAc
# In short: (§1)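 Arrays were curated from the Consortium for Functional Glycomics database, 3228 in total, and kept only where the protein sequence was available. Binding is expressed as a within-array Z-score. This score was averaged across arrays of the same protein sequence at different concentrations or buffers and across linkers, and negative values can be read as non-binding.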
# [2] = target: Gal(b1-4)GlcNAc(a1-6)Gal(b1-4)GlcNAc
# In short: as §1
# [3] = target: Gal(b1-4)GlcNAc(b1-2)Man
# In short: as §1
# [4] = target: Gal(b1-4)GlcNAc(b1-2)Man(a1-3)Man(b1-4)GlcNAc(b1-4)GlcNAc
# In short: as §1
# [5] = target: Gal(b1-4)GlcNAc(b1-2)Man(a1-3)[Gal(b1-4)GlcNAc(b1-2)Man(a1-6)]Man(b1-4)GlcNAc(b1-4)GlcNAc
# In short: as §1
# [6] = target: Gal(b1-4)GlcNAc(b1-2)Man(a1-3)[Gal(b1-4)GlcNAc(b1-2)Man(a1-6)]Man(b1-4)GlcNAc(b1-4)[Fuc(a1-6)]GlcNAc
# In short: as §1
# [7] = target: Gal(b1-4)GlcNAc(b1-2)Man(a1-3)[Gal(b1-4)GlcNAc(b1-2)Man(a1-6)][Gal(b1-4)GlcNAc(b1-4)]Man(b1-4)GlcNAc(b1-4)[Fuc(a1-6)]GlcNAc
# In short: as §1
# [8] = target: Gal(b1-4)GlcNAc(b1-2)Man(a1-3)[Gal(b1-4)GlcNAc(b1-2)Man(a1-6)][GlcNAc(b1-4)]Man(b1-4)GlcNAc(b1-4)[Fuc(a1-6)]GlcNAc
# In short: as §1
# [9] = target: Gal(b1-4)GlcNAc(b1-2)Man(a1-3)[Gal(b1-4)GlcNAc(b1-2)][GlcNAc(b1-4)]Man(b1-4)GlcNAc(b1-4)GlcNAc
# In short: as §1
# [10] = target: Gal(b1-4)GlcNAc(b1-2)Man(a1-3)[GlcNAc(b1-2)Man(a1-6)]Man(b1-4)GlcNAc(b1-4)GlcNAc
# In short: as §1
# [11] = target: Gal(b1-4)GlcNAc(b1-2)Man(a1-3)[GlcNAc(b1-4)][Gal(b1-4)GlcNAc(b1-2)Man(a1-6)]Man(b1-4)GlcNAc(b1-4)GlcNAc
# In short: as §1
# [12] = target: Gal(b1-4)GlcNAc(b1-2)Man(a1-3)[Man(a1-6)]Man(b1-4)GlcNAc(b1-4)GlcNAc
# In short: as §1
# [13] = target: Gal(b1-4)GlcNAc(b1-2)Man(a1-6)Man(b1-4)GlcNAc(b1-4)GlcNAc
# In short: as §1
# [14] = target: Gal(b1-4)GlcNAc(b1-2)Man(a1-6)[GlcNAc(b1-2)Man(a1-3)]Man(b1-4)GlcNAc(b1-4)GlcNAc
# In short: as §1
# [15] = target: Gal(b1-4)GlcNAc(b1-2)Man(a1-6)[Man(a1-3)]Man(b1-4)GlcNAc(b1-4)GlcNAc
# In short: as §1
# [16] = target: Gal(b1-4)GlcNAc(b1-2)[Gal(b1-4)GlcNAc(b1-4)]Man(a1-3)[Gal(b1-4)GlcNAc(b1-2)Man(a1-6)]Man(b1-4)GlcNAc(b1-4)GlcNAc
# In short: as §1
# [17] = target: Gal(b1-4)GlcNAc(b1-2)[Gal(b1-4)GlcNAc(b1-4)]Man(a1-3)[Gal(b1-4)GlcNAc(b1-2)[Gal(b1-4)GlcNAc(b1-6)]Man(a1-6)]Man(b1-4)GlcNAc(b1-4)GlcNAc
# In short: as §1
# [18] = target: Gal(b1-4)GlcNAc(b1-2)[Gal(b1-4)GlcNAc(b1-4)]Man(a1-3)[GlcNAc(b1-4)][Gal(b1-4)GlcNAc(b1-2)Man(a1-6)]Man(b1-4)GlcNAc(b1-4)GlcNAc
# In short: as §1
# [19] = target: Gal(b1-4)GlcNAc(b1-2)[Gal(b1-4)GlcNAc(b1-4)]Man(a1-3)[GlcNAc(b1-4)][Gal(b1-4)GlcNAc(b1-2)[Gal(b1-4)GlcNAc(b1-6)]Man(a1-6)]Man(b1-4)GlcNAc(b1-4)GlcNAc
# In short: as §1
# [20] = target: Gal(b1-4)GlcNAc(b1-2)[Gal(b1-4)GlcNAc(b1-6)]Man(a1-6)[Gal(b1-4)GlcNAc(b1-2)Man(a1-3)]Man(b1-4)GlcNAc(b1-4)GlcNAc
# In short: as §1
# [21] = target: Gal(b1-4)GlcNAc(b1-2)[Gal(b1-4)GlcNAc(b1-6)]Man(a1-6)[Gal(b1-4)GlcNAc(b1-2)Man(a1-3)]Man(b1-4)GlcNAc(b1-4)[Fuc(a1-6)]GlcNAc
# In short: as §1
# [22] = target: Gal(b1-4)GlcNAc(b1-2)[Gal(b1-4)GlcNAc(b1-6)]Man(a1-6)[GlcNAc(b1-4)][Gal(b1-4)GlcNAc(b1-2)Man(a1-3)]Man(b1-4)GlcNAc(b1-4)GlcNAc
# In short: as §1
binder,measurement,setting,value
GST Gap3 (Streptococcus parasanguinis) (protein) MTKQLISEIYWNEIRKGENYLYGSQIKFQEDLVNFYNPQLASGKPIVTFKSRTNYQGDRHSPDLPILIQGNRYLLEYQIDAVPANSFFLQLDFFNRQAEQIESIVLRNSGESFIFPKDTFTYTLTLMSAGCQSVTYQKFMIYDINDEEKKNHIVENRYLRELLPKDLDLVKNLIEYI,glycan array binding signal (z-score),[1],-0.256
same,glycan array binding signal (z-score),[2],-0.425
same,glycan array binding signal (z-score),[3],-0.221
same,glycan array binding signal (z-score),[4],0.302
same,glycan array binding signal (z-score),[5],0.471
same,glycan array binding signal (z-score),[6],-0.204
same,glycan array binding signal (z-score),[7],-0.033
same,glycan array binding signal (z-score),[8],-0.477
same,glycan array binding signal (z-score),[9],-0.614
same,glycan array binding signal (z-score),[10],0.067
same,glycan array binding signal (z-score),[11],0.235
same,glycan array binding signal (z-score),[12],1.04
same,glycan array binding signal (z-score),[13],0.144
same,glycan array binding signal (z-score),[14],-0.251
same,glycan array binding signal (z-score),[15],0.013
same,glycan array binding signal (z-score),[16],0.283
same,glycan array binding signal (z-score),[17],0.566
same,glycan array binding signal (z-score),[18],-0.238
same,glycan array binding signal (z-score),[19],0.389
same,glycan array binding signal (z-score),[20],1.94
same,glycan array binding signal (z-score),[21],0.799
same,glycan array binding signal (z-score),[22],0.491

# Part of the list above, bar-delimited:
binder | measurement | setting | value
GST Gap3 (Streptococcus parasanguinis) (protein) MTKQLISEIYWNEIRKGENYLYGSQIKFQEDLVNFYNPQLASGKPIVTFKSRTNYQGDRHSPDLPILIQGNRYLLEYQIDAVPANSFFLQLDFFNRQAEQIESIVLRNSGESFIFPKDTFTYTLTLMSAGCQSVTYQKFMIYDINDEEKKNHIVENRYLRELLPKDLDLVKNLIEYI | glycan array binding signal (z-score) | [11] | 0.235
same | glycan array binding signal (z-score) | [12] | 1.04
